In the supplement of paper PMC4604168 (melanoma cell lines):
Some of the results follow. Repeats are few or missing, and single values can be far off.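 The apoptosis fraction was the count of cleaved-PARP antibody-stained nuclei relative to all DNA-stained nuclei, imaged in 1,536-well plates. Screening doses were set so most cells survived, and baseline and induced cleaved-PARP levels vary greatly across cell lines.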

System: WM3619
Test: cleaved PARP positive nuclei fraction relative to DMSO control; melanoma cells; higher = more apoptosis
Settings: library dose: low library concentration; 72 h

Q: For `C[As](C)SC[C@H](NC(=O)CC[C@H](N)C(=O)O)C(=O)NCC(=O)O` [Darinaparsin] + O=C(O)c1ccc(-c2c[nH]c3ncc(-c4ccccc4)cc23)cc1C1CCCC1 [GSK650394] (first compound 0.4 µM, partner dose 0.16 µM), which “cleaved PARP positive nuclei fraction” value is on record?
A: 180%

Q: For `O=C(Nc1cc(C(F)(F)F)cc(C(F)(F)F)c1)c1cc(Cl)ccc1O` + O=C(Oc1ccc([N+](=O)[O-])cc1)N1CCC(C(O)(c2ccc3c(c2)OCO3)c2ccc3c(c2)OCO3)CC1 [JZL184] (first compound 0.016 µM, partner dose 1 µM), which “cleaved PARP positive nuclei fraction” value is on record?
A: 94.2%

Q: With `Cn1cc(C2=C(c3cn(C4CCN(Cc5ccccn5)CC4)c4ccccc34)C(=O)NC2=O)c2ccccc21` [Enzastaurin] + O=C(Oc1ccc([N+](=O)[O-])cc1)N1CCC(C(O)(c2ccc3c(c2)OCO3)c2ccc3c(c2)OCO3)CC1 [JZL184] (first compound 0.8 µM, partner dose 1 µM) as the compound, how does the “cleaved PARP positive nuclei fraction” value read?
A: 105%

Q: Which “cleaved PARP positive nuclei fraction” value does the source give for `N.N.[Cl][Pt][Cl]` [cisplatin] + CO[C@@H]1[C@H](N(C)C(=O)c2ccccc2)C[C@H]2O[C@]1(C)n1c3ccccc3c3c4c(c5c6ccccc6n2c5c31)C(=O)NC4 [Midostaurin] (first compound 1.6 µM, partner dose 0.08 µM) here?
A: 120%

Q: How did the “cleaved PARP positive nuclei fraction” value turn out when `CCN(CC)CCNC(=O)c1c(C)[nH]c(/C=C2\C(=O)Nc3ccc(F)cc32)c1C` [sunitinib] + O=C(Oc1ccc([N+](=O)[O-])cc1)N1CCC(C(O)(c2ccc3c(c2)OCO3)c2ccc3c(c2)OCO3)CC1 [JZL184] (first compound 0.4 µM, partner dose 1 µM) was run?
A: 84%

Q: For `N.N.[Cl][Pt][Cl]` [cisplatin] + Oc1cc(-c2nc(-c3ccccc3)[nH]c2-c2ccncc2)ccc1Cl [L779450] (first compound 1.6 µM, partner dose 0.2 µM), which “cleaved PARP positive nuclei fraction” value is on record?
A: 110%

Q: `Clc1ccc(Nc2nnc(Cc3ccncc3)c3ccccc23)cc1` [vatalanib] + O=C(Oc1ccc([N+](=O)[O-])cc1)N1CCC(C(O)(c2ccc3c(c2)OCO3)c2ccc3c(c2)OCO3)CC1 [JZL184] (first compound 2 µM, partner dose 1 µM) was tested. Which “cleaved PARP positive nuclei fraction” value did it give?
A: 114%

Q: For `C[As](C)SC[C@H](NC(=O)CC[C@H](N)C(=O)O)C(=O)NCC(=O)O` [Darinaparsin] + OCCn1cc(-c2cnc3nnn(Cc4ccc5ncccc5c4)c3n2)cn1 [PF04217903] (first compound 0.4 µM, partner dose 1 µM), which “cleaved PARP positive nuclei fraction” value is on record?
A: 79.8%

Q: How did the “cleaved PARP positive nuclei fraction” value turn out when `C[C@@H](N)c1ccc(C(=O)Nc2ccnc3[nH]ccc23)cc1` + Cc1cc(SCc2sc(-c3ccc(C(F)(F)F)c(F)c3)nc2C)ccc1OCC(=O)O [GW0742] (first compound 0.4 µM, partner dose 2 µM) was run?
A: 392%

Q: With `N.N.[Cl][Pt][Cl]` [cisplatin] + Cn1cncc1[C@@](N)(c1ccc(Cl)cc1)c1ccc2c(c1)c(-c1cccc(Cl)c1)cc(=O)n2C [tipifarnib] (first compound 1.6 µM, partner dose 0.01 µM) as the compound, how does the “cleaved PARP positive nuclei fraction” value read?
A: 87.9%
